From paper PMC7819943, “Rice protein-binding microarrays: a tool to detect cis-acting elements near promoter regions in rice” come the findings set out here.

Sequences of proteins named here, by UniProt entry; tags and fusion partners are left off.
UniProt Q0JBA9, entry or part of it: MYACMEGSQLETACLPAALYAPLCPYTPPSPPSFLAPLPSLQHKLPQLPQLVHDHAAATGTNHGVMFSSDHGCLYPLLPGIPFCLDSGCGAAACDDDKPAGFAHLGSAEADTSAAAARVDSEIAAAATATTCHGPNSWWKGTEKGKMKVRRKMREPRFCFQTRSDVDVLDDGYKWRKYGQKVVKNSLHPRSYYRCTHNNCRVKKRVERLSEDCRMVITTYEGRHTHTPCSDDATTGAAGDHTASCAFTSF

The other results are listed elsewhere or left out.

The assay deals with OsWRKY34 (Oryza sativa, UniProt Q0JBA9 1-250). Nature of the assay: protein-binding microarray (RPBM); PBS, 2% BSA, 51.3 ng/ul salmon testes DNA, 50 uM zinc acetate, 200 nM TF, 25 C, 1 h; high values mean tight binding. The following applies: protein: recombinant; tags: N-terminal polyhistidine and DsRed monomer fusion (pET32a); label: CyDye5-dUTP incorporated in the synthesized complementary strand; 3' TTTTT single-stranded linker to array surface; dsDNA, one strand shown. Summed up:
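The binding signal is fluorescence intensity per feature, in arbitrary units, read on an Axon 4000B scanner. Polyhistidine- and DsRed-tagged transcription factors (N-terminal fusions) from E. coli BL21-CodonPlus were purified on Ni–NTA and applied at 200 nM for 1 h at 25 °C to a double-stranded, BSA-blocked custom Agilent array in buffer with 50 µM zinc acetate.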
Turning to “CTCCTCTAACTAACATAACTTCCCACTGACGTGGTCATTTCGGAGTCACCTAGTGCAG”, the binding signal was 9310 fluorescence intensity (a.u.).
The same measure for “GCAGCTTTCCACTATACTACCACCACCACTGAGCTGCCACCGGAGTCACCTAGTGCAG”: 8490 fluorescence intensity (a.u.).
In the case of “CTGCGGCGGTCGACGACACGTTGGTTGGCCGGAGCTGGAACGGAGTCACCTAGTGCAG”, the binding signal was 10700 fluorescence intensity (a.u.).
“GACATGTGGCTTAATTTCCGCGTTTCTTGAATCGGTTTCTCGGAGTCACCTAGTGCAG”: the binding signal was 12300 fluorescence intensity (a.u.).
For “TCCACGGTTGTTGCGAGCTGCCTTTGTGCCTACCCAAAAACGGAGTCACCTAGTGCAG”, the binding signal was 8360 fluorescence intensity (a.u.).
The same measure for “GAGGCGTGCGGGATGGTGTGGGTTAATCTGGGATAAGGATCGGAGTCACCTAGTGCAG”: 8230 fluorescence intensity (a.u.); for “CACCTTTTCTTGGCATCGCACCACGCACACAACCAAAACCCGGAGTCACCTAGTGCAG”: 9470 fluorescence intensity (a.u.); for “TGATGGGCGATCGATCGCTATGGGGATGGGGTAGCGATCGCGGAGTCACCTAGTGCAG”: 8110 fluorescence intensity (a.u.).
On to “CCCTTCGTTTCACAATGTAAGTCATTCTAGCATTTCTCACCGGAGTCACCTAGTGCAG”, for which the binding signal is 8600 fluorescence intensity (a.u.).
Take “TAATTTTTATAGGCCTGTTCATATTTTCTACCGTTGATTTCGGAGTCACCTAGTGCAG”: the binding signal is 10300 fluorescence intensity (a.u.).
“GTCACGCCGAGCTACTTACCTCCGCGAGCGGCCACAACTCCGGAGTCACCTAGTGCAG”: the binding signal is 8370 fluorescence intensity (a.u.).
Turning to “CAATTCTCGCATGTCTGACCTCCATTCCAGCATTCAAATTCGGAGTCACCTAGTGCAG”, the binding signal was 8660 fluorescence intensity (a.u.).
To “TTGACTAGCTAGTCAGATTCTTCTTCGCTATTGCTGTCCTCGGAGTCACCTAGTGCAG” belongs 8500 fluorescence intensity (a.u.); to “GGTTAGGGTTTATGGGGTGGAGTGGCGGCGGCGGCGACGACGGAGTCACCTAGTGCAG”, 13400 fluorescence intensity (a.u.).
The same measure for “ACATGTAACAGGACTAGACCATCTTGTTCATTTCCCGCACCGGAGTCACCTAGTGCAG”: 8190 fluorescence intensity (a.u.); for “TTACCATCTATATACCTACGTCTTATCTGTATCAACTTTTCGGAGTCACCTAGTGCAG”: 12600 fluorescence intensity (a.u.).
In the case of “TTTATTTCCTAGATTAATTCTGATATGTTTCTATGTTTTACGGAGTCACCTAGTGCAG”, the binding signal was 9260 fluorescence intensity (a.u.).
The same measure for “TTCTTTTTTTCTTTTTTTTACAATTTGTGATTCAGCGAGACGGAGTCACCTAGTGCAG”: 8360 fluorescence intensity (a.u.); for “CTCCTCCTCCTCCTCCACCGCCGCCGCCGACGCCGCACTCCGGAGTCACCTAGTGCAG”: 8250 fluorescence intensity (a.u.).
“CAAAGCAACCTTGGAGTAATCTCCATTTCCATGTCCTATTCGGAGTCACCTAGTGCAG”: the binding signal was 8220 fluorescence intensity (a.u.).
Turning to “GGTGGCTCATCACATCCACACAAGTTATCTACCTGTTCACCGGAGTCACCTAGTGCAG”, the binding signal is 12000 fluorescence intensity (a.u.).
“GCCGCCAGCCAAGCCAGCTCCTGCGCCTTTGTTCCCATGCCGGAGTCACCTAGTGCAG”: the binding signal is 8640 fluorescence intensity (a.u.).
For “ACTTTTCCATCACATCGTTCCAATTTCAACCAAACTTCCACGGAGTCACCTAGTGCAG”, the binding signal was 9720 fluorescence intensity (a.u.).
For the sequence “TATCCATGCATGATAAGTCATAACTATAGTATTGACTTCTCGGAGTCACCTAGTGCAG”, the binding signal was 14400 fluorescence intensity (a.u.).
The same measure for “TCTCTACTCCCATTGTTAACACACAGCATGTCAAAATCTACGGAGTCACCTAGTGCAG”: 8380 fluorescence intensity (a.u.); for “GGCCAGAATCCAGATACCATGCATGTCCTTTTTCCGATCGCGGAGTCACCTAGTGCAG”: 8350 fluorescence intensity (a.u.).
To “TCTTCCAACCGGCCAACGCGTCAACCCTAGCGATCATCCACGGAGTCACCTAGTGCAG” belongs 8970 fluorescence intensity (a.u.); to “CATATATATTGTGATGGTTGATAGCATATGGCTTATCTCACGGAGTCACCTAGTGCAG”, 9990 fluorescence intensity (a.u.).
The same measure for “GACCGCTTCCACCACCGCCTCTCCTCTTCTCTTCTCCACTCGGAGTCACCTAGTGCAG”: 12100 fluorescence intensity (a.u.).
Regarding “ATGGTTTGACGCAGCCCCGTCCTGTTGACTCACCTGACCGCGGAGTCACCTAGTGCAG”, the binding signal is 12600 fluorescence intensity (a.u.).
The same measure for “CTTGGATTCTGAGGTGGGCTTGAACTTGATATGAATTAGGCGGAGTCACCTAGTGCAG”: 8100 fluorescence intensity (a.u.); for “TTCTTTCTTTTTTTGCGGGGCTGAATCATATCTATTCATTCGGAGTCACCTAGTGCAG”: 10800 fluorescence intensity (a.u.).
To “AGGGTGGGATGGGCGCTTAGAGACATATTTTAGCATGAATCGGAGTCACCTAGTGCAG” belongs 12000 fluorescence intensity (a.u.); to “CATTTGCCATATCGGCTCAATCAAACTCTGACTTTGTTTCCGGAGTCACCTAGTGCAG”, 8380 fluorescence intensity (a.u.); to “TCGTCGCCAACTCGTTCCGCCGCATCCCCGACAGGTCGACCGGAGTCACCTAGTGCAG”, 8990 fluorescence intensity (a.u.).
To “ACCATATGCATCTGAATTTGTTCTGAGTATACTCCATTTCCGGAGTCACCTAGTGCAG” belongs 10600 fluorescence intensity (a.u.); to “AAACTTTGCGCAAGCATGTATGGATCGTTCATTCGTTTTACGGAGTCACCTAGTGCAG”, 8160 fluorescence intensity (a.u.); to “GGGGATTTTCATTTTTTGTTTTGTTTTGAAGCTTTCGCTACGGAGTCACCTAGTGCAG”, 14700 fluorescence intensity (a.u.).
Turning to “GACTTCTATTCTTGGTTCAGCACACTCCTCCATAGAAGCACGGAGTCACCTAGTGCAG”, the binding signal is 8760 fluorescence intensity (a.u.).
As for “GTTGGTCTTTCATCATTTTCCACGTACAACCGCATGACGCCGGAGTCACCTAGTGCAG”, the binding signal is 10300 fluorescence intensity (a.u.).
To “ATAATTAGATCTTTGGTTCTGTCGTTATTCAGTTTTTTCACGGAGTCACCTAGTGCAG” belongs 8610 fluorescence intensity (a.u.).
The same measure for “GCCCATTTAACTCCCAAAGCCCGCAACTAAAATCACGGCCCGGAGTCACCTAGTGCAG”: 8570 fluorescence intensity (a.u.).
